Laboratory results published in patent publication US20220233469A1, “METHODS, COMPOSITIONS AND DEVICES FOR TREATING NEUROINFLAMMATORY CONDITIONS” (ALYRA BIOTECH PTY LTD, priority 2019, published 2022).

Target: T1, hTLR8 (Homo sapiens, UniProt Q9NR97)
T1 construct: expressed in transfected cells; host or cells: HEK293
T1 sequence (Q9NR97 27-1041): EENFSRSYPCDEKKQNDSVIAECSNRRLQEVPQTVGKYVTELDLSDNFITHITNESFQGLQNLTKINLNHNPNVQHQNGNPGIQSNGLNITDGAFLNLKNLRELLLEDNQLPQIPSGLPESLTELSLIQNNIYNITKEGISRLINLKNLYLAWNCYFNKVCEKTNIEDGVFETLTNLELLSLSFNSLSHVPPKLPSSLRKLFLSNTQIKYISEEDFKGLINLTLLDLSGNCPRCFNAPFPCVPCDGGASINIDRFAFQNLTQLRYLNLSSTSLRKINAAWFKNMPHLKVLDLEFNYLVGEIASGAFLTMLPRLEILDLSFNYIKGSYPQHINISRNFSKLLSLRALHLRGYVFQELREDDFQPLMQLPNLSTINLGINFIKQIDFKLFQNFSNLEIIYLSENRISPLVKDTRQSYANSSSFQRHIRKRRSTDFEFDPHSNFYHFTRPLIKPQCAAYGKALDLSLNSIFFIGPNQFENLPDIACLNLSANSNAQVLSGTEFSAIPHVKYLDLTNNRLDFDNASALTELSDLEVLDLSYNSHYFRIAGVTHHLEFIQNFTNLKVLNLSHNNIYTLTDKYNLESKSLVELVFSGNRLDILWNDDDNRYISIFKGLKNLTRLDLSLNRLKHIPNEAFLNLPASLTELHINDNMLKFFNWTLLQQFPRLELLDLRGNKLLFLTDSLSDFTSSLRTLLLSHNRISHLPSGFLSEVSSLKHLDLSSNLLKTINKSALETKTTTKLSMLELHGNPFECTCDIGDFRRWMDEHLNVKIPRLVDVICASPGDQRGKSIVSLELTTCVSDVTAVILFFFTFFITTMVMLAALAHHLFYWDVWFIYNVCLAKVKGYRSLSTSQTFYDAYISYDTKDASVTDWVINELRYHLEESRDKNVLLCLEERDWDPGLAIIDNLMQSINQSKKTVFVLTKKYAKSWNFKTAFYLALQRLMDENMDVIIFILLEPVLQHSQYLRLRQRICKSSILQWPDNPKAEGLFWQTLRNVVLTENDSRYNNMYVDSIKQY
Test: Human TLR/NLR agonist screening: NF-κB activation in HEK293 cells expressing hTLR8
Format: cell-based
Details: agonist mode; Control+ = CL075 1 μg/mL
Source text: The media added to the wells was designed for the detection of NF-κB induced SEAP expression.

- Fold induction (ratio of average induced value to average non-induced value): 19
Structure (SMILES): CCCc1nc2c(N)nc3ccccc3c2s1 [CL075]
